Source: patent publication US20220023387A1
Results are given in words; binding and its absence hold for the method and conditions named. Some results given as binding are weak or reduced against the parent protein; the word gives no strength.

By UniProt entry, the sequences of proteins in these tests, tags left out. Residues count along the entry.
UniProt P40224, residues 22-89: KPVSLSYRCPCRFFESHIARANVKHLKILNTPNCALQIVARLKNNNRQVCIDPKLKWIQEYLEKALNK
UniProt P63158: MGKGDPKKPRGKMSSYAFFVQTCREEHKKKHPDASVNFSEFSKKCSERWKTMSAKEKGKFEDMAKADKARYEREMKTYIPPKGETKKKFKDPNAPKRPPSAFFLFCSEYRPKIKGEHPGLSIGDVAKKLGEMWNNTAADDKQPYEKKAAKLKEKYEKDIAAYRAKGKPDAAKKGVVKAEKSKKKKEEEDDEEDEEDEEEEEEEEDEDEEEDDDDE

Target: CXCL12, endogenous, in mouse plasma (mouse) (UniProt P40224)
Experiment: hybrid sandwich ELISA on plasma (capture anti-CXCL12, detection anti-HMGB1)

binding: binds
Substance: HMGB1 (High Mobility Group Box 1), endogenous, in mouse plasma (from UniProt P63158 1-215)
